Test results taken from the supplement of paper PMC8858631.
This is one part of the list. Cut-off read from the data, not from the text of the source: active = 0.5 or less and inactive = the rest. Most values come without repeats; read them as rough.

Tested on: SK-MEL-28
Assay: EEF2K protein level normalised to actin (western blot) after treatment (ratio (EEF2K/Actin)); higher = more EEF2K protein remaining (less EEF2K suppression)
Details: 5 µM; 24 h

For `CN(C(=O)c1c(O)c2ccccc2n(C)c1=O)c1ccccc1` [Roquinimex], which “EEF2K protein level normalised to actin” value is on record?
Its value is inactive: 1.72.

Which “EEF2K protein level normalised to actin” value does the source give for `CNC(=O)c1cc(Oc2ccc(NC(=O)Nc3ccc(Cl)c(C(F)(F)F)c3)c(F)c2)ccn1` [Regorafenib (BAY 73-4506)] here?
The value was inactive: 3.52.

How did the “EEF2K protein level normalised to actin” value turn out when `O=C(O)C(=O)O.[NH-][C@@H]1CCCC[C@H]1[NH-].[Pt+2]` [Oxaliplatin] was run?
The value was inactive: 1.84.

`O=c1cc[nH]c(=O)[nH]1` [Uracil] was tested. Which “EEF2K protein level normalised to actin” value did it give?
Its value is inactive: 1.18.

For `O=c1c(-c2ccc(O)cc2)coc2cc(O)cc(O)c12` [Genistein], which “EEF2K protein level normalised to actin” value is on record?
The value was inactive: 1.73.

How did the “EEF2K protein level normalised to actin” value turn out when `Nc1ccn([C@@H]2O[C@H](CO)[C@@H](O)[C@@H]2O)c(=O)n1` [Cytarabine] was run?
Its value is active: 0.35.

For `Nc1nc2[nH]cnc2c(=S)[nH]1` [Thioguanine], which “EEF2K protein level normalised to actin” value is on record?
Its value is active: 0.46.

With `COc1cc(N2CCC(N3CCN(C)CC3)CC2)ccc1Nc1ncc(Cl)c(Nc2ccccc2P(C)(C)=O)n1` as the molecule, how does the “EEF2K protein level normalised to actin” value read?
Its value is inactive: 0.74.

For `Cc1nc(NC(=O)N2CCC[C@H]2C(N)=O)sc1-c1ccnc(C(C)(C)C(F)(F)F)c1` [Alpelisib (BYL719)], which “EEF2K protein level normalised to actin” value is on record?
Its value is inactive: 1.08.

How did the “EEF2K protein level normalised to actin” value turn out when `O=C(/C=C/C=C/c1ccc2c(c1)OCO2)N1CCCCC1` [Piperine] was run?
Its value is inactive: 0.69.

For `CNC[C@H](O)c1ccc(O)c(O)c1` [Epinephrine bitartrate], which “EEF2K protein level normalised to actin” value is on record?
Its value is inactive: 2.09.

Which “EEF2K protein level normalised to actin” value does the source give for `CC(C)(O)CNc1nc(Nc2ccnc(C(F)(F)F)c2)nc(-c2cccc(C(F)(F)F)n2)n1` [Enasidenib (AG-221)] here?
The value was inactive: 0.71.

`CCCS(=O)(=O)Nc1ccc(F)c(C(=O)c2c[nH]c3ncc(-c4ccc(Cl)cc4)cc23)c1F` [Vemurafenib (PLX4032, RG7204)] was tested. Which “EEF2K protein level normalised to actin” value did it give?
Its value is inactive: 1.24.

How did the “EEF2K protein level normalised to actin” value turn out when `CC[C@H](c1ccc(O)cc1)[C@@H](CC)c1ccc(O)cc1` [Hexestrol] was run?
Its value is inactive: 2.38.

How did the “EEF2K protein level normalised to actin” value turn out when `CCN(CC)CCNC(=O)c1c(C)[nH]c(/C=C2\C(=O)Nc3ccc(F)cc32)c1C` [Sunitinib] was run?
The value was inactive: 1.86.

For `CC1=C(/C=C/C(C)=C/C=C/C(C)=C/C(=O)Nc2ccc(O)cc2)C(C)(C)CCC1` [Fenretinide], which “EEF2K protein level normalised to actin” value is on record?
Its value is active: 0.21.

For `CC(C)C(=O)Nc1ccc([N+](=O)[O-])c(C(F)(F)F)c1` [Flutamide], which “EEF2K protein level normalised to actin” value is on record?
The value was inactive: 0.58.

With `CC1(C)CCC(CN2CCN(c3ccc(C(=O)NS(=O)(=O)c4ccc(NCC5CCOCC5)c([N+](=O)[O-])c4)c(Oc4cnc5[nH]ccc5c4)c3)CC2)=C(c2ccc(Cl)cc2)C1` [Venetoclax (ABT-199, GDC-0199)] as the molecule, how does the “EEF2K protein level normalised to actin” value read?
Its value is inactive: 1.

How did the “EEF2K protein level normalised to actin” value turn out when `CC(=O)Oc1ccccc1C(=O)O` [Aspirin] was run?
Its value is inactive: 0.69.

For `O=C(c1ccc(OCCN2CCCCC2)cc1)c1c(-c2ccc(O)cc2)sc2cc(O)ccc12` [Raloxifene], which “EEF2K protein level normalised to actin” value is on record?
The value was inactive: 0.65.

`CC(=O)O[C@H]1CC[C@@]2(C)C(=CC[C@@H]3[C@@H]2CC[C@]2(C)C(c4cccnc4)=CC[C@@H]32)C1` [Abiraterone Acetate] was tested. Which “EEF2K protein level normalised to actin” value did it give?
The value was inactive: 1.93.

For `C/C=C(/C(=C/C)c1ccc(O)cc1)c1ccc(O)cc1` [Dienestrol], which “EEF2K protein level normalised to actin” value is on record?
Its value is inactive: 0.52.

With `FC(F)(F)c1ccc(CNc2ccc(Cc3c[nH]c4ncc(Cl)cc34)cn2)cn1` [Pexidartinib (PLX3397)] as the molecule, how does the “EEF2K protein level normalised to actin” value read?
Its value is inactive: 1.25.

With `CN(C)C/C=C/C(=O)Nc1cc2c(Nc3ccc(F)c(Cl)c3)ncnc2cc1O[C@H]1CCOC1` [Afatinib (BIBW2992) Dimaleate] as the molecule, how does the “EEF2K protein level normalised to actin” value read?
Its value is inactive: 0.51.

How did the “EEF2K protein level normalised to actin” value turn out when `O=C(/C=C/c1cccc(S(=O)(=O)Nc2ccccc2)c1)NO` [Belinostat (PXD101)] was run?
Its value is active: 0.35.

For `NC(=S)N/N=C/c1ncccc1N` [Triapine], which “EEF2K protein level normalised to actin” value is on record?
Its value is inactive: 0.9.

For `Cc1cc(Nc2ncc(Cl)c(Nc3ccccc3S(=O)(=O)C(C)C)n2)c(OC(C)C)cc1C1CCNCC1` [Ceritinib (LDK378)], which “EEF2K protein level normalised to actin” value is on record?
Its value is inactive: 6.06.

With `COC(=O)N[C@H](C(=O)N1CCC[C@H]1c1ncc(-c2ccc(-c3ccc(-c4cnc([C@@H]5CCCN5C(=O)[C@@H](NC(=O)OC)C(C)C)[nH]4)cc3)cc2)[nH]1)C(C)C` as the molecule, how does the “EEF2K protein level normalised to actin” value read?
Its value is inactive: 0.91.

`Nc1ncn([C@@H]2O[C@H](CO)[C@@H](O)[C@H]2O)c(=O)n1` [Azacitidine] was tested. Which “EEF2K protein level normalised to actin” value did it give?
Its value is inactive: 0.72.

With `CC1=C(CC(=O)O)c2cc(F)ccc2/C1=C\c1ccc([S+](C)[O-])cc1` (stereo unspecified) [Sulindac] as the molecule, how does the “EEF2K protein level normalised to actin” value read?
Its value is inactive: 0.83.

With `CNC(=O)c1cc(Oc2ccc(NC(=O)Nc3ccc(Cl)c(C(F)(F)F)c3)cc2)ccn1` [Sorafenib] as the molecule, how does the “EEF2K protein level normalised to actin” value read?
The value was inactive: 2.28.
